In patent US20210171576A1, “METHODS FOR TREATING CANCER WITH ACYLDEPSIPEPTIDE ANALOGS” (priority 2018, published 2021):

B1: NT5DC2 (protein, UniProt Q9H857 1-520, looked up)
5'-nucleotidase …: MRVESGSAQERGILLESLSTLLEKTTASHEGRAPGNRELTDLLPPEVCSLLNPAAIYANNEISLRDVEVYGFDYDYTLAQYADALHPEIFSTARDILIEHYKYPEGIRKYDYNPSFAIRGLHYDIQKSLLMKIDAFHYVQLGTAYRGLQPVPDEEVIELYGGTQHIPLYQMSGFYGKGPSIKQFMDIFSLPEMALLSCVVDYFLGHSLEFDQAHLYKDVTDAIRDVHVKGLMYQWIEQDMEKYILRGDETFAVLSRLVAHGKQLFLITNSPFSFVDKGMRHMVGPDWRQLFDVVIVQADKPSFFTDRRKPFRKLDEKGSLQWDRITRLEKGKIYRQGNLFDFLRLTEWRGPRVLYFGDHLYSDLADLMLRHGWRTGAIIPELEREIRIINTEQYMHSLTWQQALTGLLERMQTYQDAESRQVLAAWMKERQELRCITKALFNAQFGSIFRTFHNPTYFSRRLVRFSDLYMASLSCLLNYRVDFTFYPRRTPLQHEAPLWMDQLCTGCMKTPFLGDMAHIR
B2: MTX2 (protein, UniProt O75431 2-263, looked up)
Metaxin-2: SLVAEAFVSQIAAAEPWPENATLYQQLKGEQILLSDNAASLAVQAFLQMCNLPIKVVCRANAEYMSPSGKVPFIHVGNQVVSELGPIVQFVKAKGHSLSDGLEEVQKAEMKAYMELVNNMLLTAELYLQWCDEATVGEITHARYGSPYPWPLNHILAYQKQWEVKRKMKAIGWGKKTLDQVLEDVDQCCQALSQRLGTQPYFFNKQPTELDALVFGHLYTILTTQLTNDELSEKVKNYSNLLAFCRRIEQHYFEDRGKGRLS
B3: OGDH (protein, UniProt Q02218 41-1023, looked up)
2-oxoglutarate dehydrogenase …: SAPVAAEPFLSGTSSNYVEEMYCAWLENPKSVHKSWDIFFRNTNAGAPPGTAYQSPLPLSRGSLAAVAHAQSLVEAQPNVDKLVEDHLAVQSLIRAYQIRGHHVAQLDPLGILDADLDSSVPADIISSTDKLGFYGLDESDLDKVFHLPTTTFIGGQESALPLREIIRRLEMAYCQHIGVEFMFINDLEQCQWIRQKFETPGIMQFTNEEKRTLLARLVRSTRFEEFLQRKWSSEKRFGLEGCEVLIPALKTIIDKSSENGVDYVIMGMPHRGRLNVLANVIRKELEQIFCQFDSKLEAADEGSGDVKYHLGMYHRRINRVTDRNITLSLVANPSHLEAADPVVMGKTKAEQFYCGDTEGKKVMSILLHGDAAFAGQGIVYETFHLSDLPSYTTHGTVHVVVNNQIGFTTDPRMARSSPYPTDVARVVNAPIFHVNSDDPEAVMYVCKVAAEWRSTFHKDVVVDLVCYRRNGHNEMDEPMFTQPLMYKQIRKQKPVLQKYAELLVSQGVVNQPEYEEEISKYDKICEEAFARSKDEKILHIKHWLDSPWPGFFTLDGQPRSMSCPSTGLTEDILTHIGNVASSVPVENFTIHGGLSRILKTRGEMVKNRTVDWALAEYMAFGSLLKEGIHIRLSGQDVERGTFSHRHHVLHDQNVDKRTCIPMNHLWPNQAPYTVCNSSLSEYGVLGFELGFAMASPNALVLWEAQFGDFHNTAQCIIDQFICPGQAKWVRQNGIVLLLPHGMEGMGPEHSSARPERFLQMCNDDPDVLPDLKEANFDINQLYDCNWVVVNCSTPGNFFHVLRRQILLPFRKPLIIFTPKSLLRHPEARSSFDEMLPGTHFQRVIPEDGPAAQNPENVKRLLFCTGKVYYDLTRERKARDMVGQVAITRIEQLSPFPFDLLLKEVQKYPNAELAWCQEEHKNQGYYDYVKPRLRTTISRAKPVWYAGRDPAAAPATGNKKTHLTELQRLLDTAFDLDVFKNFS
B4: MTX1 (protein, UniProt Q13505 1-466, looked up)
Metaxin-1: MLLGGPPRSPRSGTSPKGPWSSTGHVQFGKSPQTWPRRTRPRSPEPAAPSGVRGSTWTRRRDSPRRAGPTALSRYVGHLWMGRRPPSPEARGPVPRSSAASRARRSLASPGISPGPLTATIGGAVAGGGPRQGRAEAHKEVFPGQRVGKMAAPMELFCWSGGWGLPSVDLDSLAVLTYARFTGAPLKVHKISNPWQSPSGTLPALRTSHGEVISVPHKIITHLRKEKYNADYDLSARQGADTLAFMSLLEEKLLPVLVHTFWIDTKNYVEVTRKWYAEAMPFPLNFFLPGRMQRQYMERLQLLTGEHRPEDEEELEKELYREARECLTLLSQRLGSQKFFFGDAPASLDAFVFSYLALLLQAKLPSGKLQVHLRGLHNLCAYCTHILSLYFPWDGAEVPPQRQTPAGPETEEEPYRRRNQILSVLAGLAAMVGYALLSGIVSIQRATPARAPGTRTLGMAEEDEEE
B5: PCCB (protein, UniProt P05166 29-539, looked up)
Propionyl-CoA carboxylase …: CSQATSVNERIENKRRTALLGGGQRRIDAQHKRGKLTARERISLLLDPGSFVESDMFVEHRCADFGMAADKNKFPGDSVVTGRGRINGRLVYVFSQDFTVFGGSLSGAHAQKICKIMDQAITVGAPVIGLNDSGGARIQEGVESLAGYADIFLRNVTASGVIPQISLIMGPCAGGAVYSPALTDFTFMVKDTSYLFITGPDVVKSVTNEDVTQEELGGAKTHTTMSGVAHRAFENDVDALCNLRDFFNYLPLSSQDPAPVRECHDPSDRLVPELDTIVPLESTKAYNMVDIIHSVVDEREFFEIMPNYAKNIIVGFARMNGRTVGIVGNQPKVASGCLDINSSVKGARFVRFCDAFNIPLITFVDVPGFLPGTAQEYGGIIRHGAKLLYAFAEATVPKVTVITRKAYGGAYDVMSSKHLCGDTNYAWPTAEIAVMGAKGAVEIIFKGHENVEAAQAEYIEKFANPFPAAVRGFVDDIIQPSSTRARICCDLDVLASKKVQRPWRKHANIPL
B6: PAM16 (protein, UniProt Q9Y3D7 1-125, looked up)
Mitochondrial import inner …: MAKYLAQIIVMGVQVVGRAFARALRQEFAASRAAADARGRAGHRSAAASNLSGLSLQEAQQILNVSKLSPEEVQKNYEHLFKVNDKSVGGSFYLQSKVVRAKERLDEELKIQAQEDREKGQMPHT
B7: NIPSNAP1 (protein, UniProt Q9BPW8 36-284, looked up)
Protein NipSnap homolog 1: SKDNEGSWFRSLFVHKVDPRKDAHSTLLSKKETSNLYKIQFHNVKPEYLDAYNSLTEAVLPKLHLDEDYPCSLVGNWNTWYGEQDQAVHLWRFSGGYPALMDCMNKLKNNKEYLEFRRERSQMLLSRRNQLLLEFSFWNEPQPRMGPNIYELRTYKLKPGTMIEWGNNWARAIKYRQENQEAVGGFFSQIGELYVVHHLWAYKDLQSREETRNAAWRKRGWDENVYYTVPLVRHMESRIMIPLKISPLQ
B8: PCK2 (protein, UniProt Q16822 33-640, looked up)
Phosphoenolpyruvate …: LSGDLGQLPTGIRDFVEHSARLCQPEGIHICDGTEAENTATLTLLEQQGLIRKLPKYNNCWLARTDPKDVARVESKTVIVTPSQRDTVPLPPGGARGQLGNWMSPADFQRAVDERFPGCMQGRTMYVLPFSMGPVGSPLSRIGVQLTDSAYVVASMRIMTRLGTPVLQALGDGDFVKCLHSVGQPLTGQGEPVSQWPCNPEKTLIGHVPDQREIISFGSGYGGNSLLGKKCFALRIASRLARDEGWLAEHMLILGITSPAGKKRYVAAAFPSACGKTNLAMMRPALPGWKVECVGDDIAWMRFDSEGRLRAINPENGFFGVAPGTSATTNPNAMATIQSNTIFTNVAETSDGGVYWEGIDQPLPPGVTVTSWLGKPWKPGDKEPCAHPNSRFCAPARQCPIMDPAWEAPEGVPIDAIIFGGRRPKGVPLVYEAFNWRHGVFVGSAMRSESTAAAEHKGKIIMHDPFAMRPFFGYNFGHYLEHWLSMEGRKGAQLPRIFHVNWFRRDEAGHFLWPGFGENARVLDWICRRLEGEDSARETPIGLVPKEGALDLSGLRAIDTTQLFSLPKDFWEQEVRDIRSYLTEQVNQDLPKEVLAELEALERRVHKM

Tested on: mitochondrial proteins of HEK293 T-REx cells
Assay: Mitochondrial proteome profiling for WT and CLPP^−/− (fold change CLPP^−/−/WT)
Set-up: species or system human
Details: MaxQuant total peptide ion intensity
[1] = fold change of mitochondrial protein detected in CLPP knockout compared to WT HEK293 T-REx cells

Row | Molecule | Avg. fold change (CLPP KO/WT) [1] | Avg. fold change (CLPP KO/WT) ([…])
1 | B1 | 2.48 | 
2 | B2 |  | 3.29
3 | B3 | −1.85 | 
4 | B4 |  | −3.88
5 | B5 | −26.16 | 
6 | B6 | −1.57 | 
7 | B7 | −3.19 | 
8 | B8 | −5.13 | 
